Source: patent publication US20090142273A1, “Activatable cest MRI agent” (CASE WESTERN RESERVE UNIVERSITY, priority 2006, published 2009)

How the values were obtained:
[1] = CEST/[…] spectra of Yb-DO3A-oAA before and after reaction with NO; conditions: for effect of MR saturation at +10 ppm (amino resonance frequency) relative to the water resonance: independent samples, FIG. 4, unbuffered, pH approximately 5.7-6.3 after reaction
[2] = Effect of pH and temperature on […] of DEVD-(Tm-DOTA) amide; format: physicochemical

| Molecule | effect of MR saturation at +10 ppm (amino resonance frequency) relative to the water resonance [1] | CEST effect / MR frequency of amide protons relative to water ([1]; amide functional group) [ppm] | pH of greatest PARACEST effect, amide proton ([2]; 25 mM, saturation at −51 ppm and +51 ppm, 31 μT for 4 seconds) | pH of greatest PARACEST effect, amine protons ([2]; amine protons, substance not given) |
| --- | --- | --- | --- | --- |
| Yb-DO3A-triazine [compound 32] | no PARACEST effect | – | – | – |
| Nc1ccccc1NC(=O)CN1CCN(CC(=O)[O-])CCN(CC(=O)[O-])CCN(CC(=O)[O-])CC1.[Yb+3] [compound 50, Yb(III)-1,4,7,10-tetraazacyclododecane-1,4,7,10-tetraacetic acid o-Aminoanilide] | decrease in MR water signal | −13 | – | – |
| DEVD-(Tm-DOTA) amide [compound 155] | – | – | ~8 | 5 |
